This passage reports log2 fold change results from the supplement of paper PMC10849652.

Sequences of proteins named here, by UniProt entry; tags and fusion partners are left off. A change or cut given only in a name is not applied to a line headed by its entry.
UniProt Q9P246, whole entry, looked up: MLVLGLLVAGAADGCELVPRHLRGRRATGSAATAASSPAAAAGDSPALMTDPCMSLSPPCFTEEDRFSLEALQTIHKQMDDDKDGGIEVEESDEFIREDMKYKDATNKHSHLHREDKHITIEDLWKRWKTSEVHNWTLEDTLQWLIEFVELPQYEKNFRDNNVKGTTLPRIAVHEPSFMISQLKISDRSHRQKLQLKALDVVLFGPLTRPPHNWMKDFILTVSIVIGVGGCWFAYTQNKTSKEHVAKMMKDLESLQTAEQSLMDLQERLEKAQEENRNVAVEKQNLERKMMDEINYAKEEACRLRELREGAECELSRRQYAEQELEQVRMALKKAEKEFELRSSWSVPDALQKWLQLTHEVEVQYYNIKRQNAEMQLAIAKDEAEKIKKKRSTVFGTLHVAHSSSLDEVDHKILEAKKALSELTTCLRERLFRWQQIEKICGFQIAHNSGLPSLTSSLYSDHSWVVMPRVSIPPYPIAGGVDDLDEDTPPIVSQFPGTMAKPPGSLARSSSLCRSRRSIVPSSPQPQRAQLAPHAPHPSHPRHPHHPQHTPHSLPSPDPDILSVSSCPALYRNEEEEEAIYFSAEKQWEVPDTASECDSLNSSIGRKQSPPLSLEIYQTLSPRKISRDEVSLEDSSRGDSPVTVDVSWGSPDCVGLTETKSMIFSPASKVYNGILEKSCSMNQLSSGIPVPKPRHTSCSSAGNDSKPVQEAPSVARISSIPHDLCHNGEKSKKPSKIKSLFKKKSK
UniProt Q8N300: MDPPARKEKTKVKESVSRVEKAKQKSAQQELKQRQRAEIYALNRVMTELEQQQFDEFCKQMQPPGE
UniProt Q5T011: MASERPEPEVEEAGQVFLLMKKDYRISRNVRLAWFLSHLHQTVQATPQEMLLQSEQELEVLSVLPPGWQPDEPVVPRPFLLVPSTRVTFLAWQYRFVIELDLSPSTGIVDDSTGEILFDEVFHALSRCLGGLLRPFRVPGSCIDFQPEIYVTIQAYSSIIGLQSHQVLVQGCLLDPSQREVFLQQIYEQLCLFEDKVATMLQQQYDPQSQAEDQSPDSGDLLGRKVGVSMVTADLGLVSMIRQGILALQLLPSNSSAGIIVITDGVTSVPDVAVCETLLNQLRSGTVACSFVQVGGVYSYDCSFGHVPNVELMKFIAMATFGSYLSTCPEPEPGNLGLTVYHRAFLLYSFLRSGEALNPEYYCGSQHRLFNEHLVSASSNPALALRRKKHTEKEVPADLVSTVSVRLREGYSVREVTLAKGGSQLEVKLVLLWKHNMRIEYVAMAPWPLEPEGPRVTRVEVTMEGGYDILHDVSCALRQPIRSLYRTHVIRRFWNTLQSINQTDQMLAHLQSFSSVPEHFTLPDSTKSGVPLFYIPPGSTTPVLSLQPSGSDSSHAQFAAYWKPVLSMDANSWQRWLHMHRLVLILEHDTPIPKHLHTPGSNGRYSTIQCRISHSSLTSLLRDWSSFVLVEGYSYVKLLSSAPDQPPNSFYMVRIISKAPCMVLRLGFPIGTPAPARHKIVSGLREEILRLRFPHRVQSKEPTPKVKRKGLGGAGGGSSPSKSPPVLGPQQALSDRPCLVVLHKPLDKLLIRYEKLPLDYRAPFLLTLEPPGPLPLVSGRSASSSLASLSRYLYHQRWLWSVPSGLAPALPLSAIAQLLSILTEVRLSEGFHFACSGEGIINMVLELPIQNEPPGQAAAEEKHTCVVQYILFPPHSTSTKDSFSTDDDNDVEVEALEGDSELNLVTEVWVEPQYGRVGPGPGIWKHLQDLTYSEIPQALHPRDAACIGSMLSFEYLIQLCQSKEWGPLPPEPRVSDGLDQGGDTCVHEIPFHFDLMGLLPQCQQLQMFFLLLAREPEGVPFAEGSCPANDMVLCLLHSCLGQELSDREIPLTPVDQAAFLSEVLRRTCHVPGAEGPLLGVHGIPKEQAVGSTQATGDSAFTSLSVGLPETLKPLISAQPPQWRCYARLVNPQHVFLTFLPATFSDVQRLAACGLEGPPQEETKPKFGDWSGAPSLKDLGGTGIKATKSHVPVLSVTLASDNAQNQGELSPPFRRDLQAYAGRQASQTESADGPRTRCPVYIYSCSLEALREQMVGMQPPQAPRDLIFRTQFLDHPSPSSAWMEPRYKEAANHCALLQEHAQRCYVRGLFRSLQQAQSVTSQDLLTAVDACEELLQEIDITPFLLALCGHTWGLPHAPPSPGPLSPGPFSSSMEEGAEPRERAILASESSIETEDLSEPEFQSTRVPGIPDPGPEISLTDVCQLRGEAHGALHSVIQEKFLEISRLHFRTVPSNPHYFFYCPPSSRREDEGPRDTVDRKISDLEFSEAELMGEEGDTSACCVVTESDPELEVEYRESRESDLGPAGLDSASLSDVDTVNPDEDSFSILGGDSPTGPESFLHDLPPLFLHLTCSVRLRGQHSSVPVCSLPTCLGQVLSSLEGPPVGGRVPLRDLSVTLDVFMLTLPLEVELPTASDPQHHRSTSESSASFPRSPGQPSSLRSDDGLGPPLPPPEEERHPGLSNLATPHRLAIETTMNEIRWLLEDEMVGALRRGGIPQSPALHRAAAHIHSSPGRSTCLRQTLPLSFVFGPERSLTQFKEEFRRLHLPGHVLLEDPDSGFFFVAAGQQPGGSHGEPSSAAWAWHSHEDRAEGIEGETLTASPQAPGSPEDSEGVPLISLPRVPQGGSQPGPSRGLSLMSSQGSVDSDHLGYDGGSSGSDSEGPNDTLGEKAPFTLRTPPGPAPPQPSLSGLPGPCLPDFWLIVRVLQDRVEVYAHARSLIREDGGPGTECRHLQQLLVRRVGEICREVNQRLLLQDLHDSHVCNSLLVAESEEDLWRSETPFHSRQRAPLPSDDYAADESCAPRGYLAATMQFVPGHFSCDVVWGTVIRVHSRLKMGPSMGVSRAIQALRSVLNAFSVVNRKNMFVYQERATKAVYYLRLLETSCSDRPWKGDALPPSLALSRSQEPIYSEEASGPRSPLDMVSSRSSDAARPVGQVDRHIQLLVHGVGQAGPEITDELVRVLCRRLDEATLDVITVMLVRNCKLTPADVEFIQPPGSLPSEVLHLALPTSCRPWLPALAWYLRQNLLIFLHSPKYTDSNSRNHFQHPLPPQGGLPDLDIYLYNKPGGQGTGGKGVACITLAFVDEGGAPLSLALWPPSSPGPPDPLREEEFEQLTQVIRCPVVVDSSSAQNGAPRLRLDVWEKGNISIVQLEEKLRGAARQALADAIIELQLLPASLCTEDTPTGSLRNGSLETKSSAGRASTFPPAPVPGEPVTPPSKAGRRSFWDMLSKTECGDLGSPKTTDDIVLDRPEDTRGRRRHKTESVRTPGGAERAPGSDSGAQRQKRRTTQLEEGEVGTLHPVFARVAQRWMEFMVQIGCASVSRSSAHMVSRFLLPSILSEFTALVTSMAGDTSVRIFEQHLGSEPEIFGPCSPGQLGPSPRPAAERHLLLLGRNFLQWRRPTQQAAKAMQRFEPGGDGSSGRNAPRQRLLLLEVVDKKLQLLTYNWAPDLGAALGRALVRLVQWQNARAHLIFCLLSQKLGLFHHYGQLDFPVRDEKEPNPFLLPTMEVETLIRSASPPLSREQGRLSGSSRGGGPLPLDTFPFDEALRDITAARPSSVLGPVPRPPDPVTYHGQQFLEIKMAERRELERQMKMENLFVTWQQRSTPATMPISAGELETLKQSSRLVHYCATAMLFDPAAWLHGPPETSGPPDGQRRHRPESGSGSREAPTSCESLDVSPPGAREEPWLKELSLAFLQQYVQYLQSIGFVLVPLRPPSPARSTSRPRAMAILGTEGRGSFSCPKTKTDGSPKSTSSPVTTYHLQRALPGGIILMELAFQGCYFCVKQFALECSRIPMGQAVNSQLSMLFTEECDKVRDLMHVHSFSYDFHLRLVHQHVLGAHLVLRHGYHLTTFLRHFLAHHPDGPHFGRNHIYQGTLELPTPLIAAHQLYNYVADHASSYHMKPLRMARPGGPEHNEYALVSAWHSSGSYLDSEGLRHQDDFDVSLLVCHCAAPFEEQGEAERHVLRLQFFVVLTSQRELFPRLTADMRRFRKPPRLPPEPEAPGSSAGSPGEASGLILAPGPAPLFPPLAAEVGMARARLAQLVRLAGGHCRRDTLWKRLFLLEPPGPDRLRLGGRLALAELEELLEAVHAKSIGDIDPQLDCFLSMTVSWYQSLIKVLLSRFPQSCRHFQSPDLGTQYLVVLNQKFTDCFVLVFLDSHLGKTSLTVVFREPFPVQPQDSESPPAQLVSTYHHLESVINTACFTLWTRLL
UniProt Q9Y2H1: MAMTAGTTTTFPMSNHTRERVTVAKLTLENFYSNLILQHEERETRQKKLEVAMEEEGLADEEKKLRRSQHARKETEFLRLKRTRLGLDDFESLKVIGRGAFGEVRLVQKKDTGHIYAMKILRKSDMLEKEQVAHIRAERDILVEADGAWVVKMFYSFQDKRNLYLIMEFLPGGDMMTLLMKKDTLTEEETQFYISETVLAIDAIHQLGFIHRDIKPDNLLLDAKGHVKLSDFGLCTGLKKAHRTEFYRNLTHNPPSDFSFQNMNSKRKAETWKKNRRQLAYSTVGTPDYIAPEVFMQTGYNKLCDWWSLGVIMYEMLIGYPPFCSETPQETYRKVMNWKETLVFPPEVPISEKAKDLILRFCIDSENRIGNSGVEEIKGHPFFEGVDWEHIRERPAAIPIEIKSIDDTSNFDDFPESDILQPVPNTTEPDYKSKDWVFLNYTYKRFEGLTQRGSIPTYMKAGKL
UniProt P0DMM9: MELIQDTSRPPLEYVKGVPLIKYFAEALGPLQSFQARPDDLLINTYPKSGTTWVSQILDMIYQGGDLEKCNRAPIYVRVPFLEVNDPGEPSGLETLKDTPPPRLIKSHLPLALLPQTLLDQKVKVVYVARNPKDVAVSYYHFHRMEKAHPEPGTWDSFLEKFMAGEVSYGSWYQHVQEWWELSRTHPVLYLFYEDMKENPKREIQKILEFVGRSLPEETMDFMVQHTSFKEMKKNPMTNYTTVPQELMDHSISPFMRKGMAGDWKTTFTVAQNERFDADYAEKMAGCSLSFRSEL
UniProt Q9UBS9: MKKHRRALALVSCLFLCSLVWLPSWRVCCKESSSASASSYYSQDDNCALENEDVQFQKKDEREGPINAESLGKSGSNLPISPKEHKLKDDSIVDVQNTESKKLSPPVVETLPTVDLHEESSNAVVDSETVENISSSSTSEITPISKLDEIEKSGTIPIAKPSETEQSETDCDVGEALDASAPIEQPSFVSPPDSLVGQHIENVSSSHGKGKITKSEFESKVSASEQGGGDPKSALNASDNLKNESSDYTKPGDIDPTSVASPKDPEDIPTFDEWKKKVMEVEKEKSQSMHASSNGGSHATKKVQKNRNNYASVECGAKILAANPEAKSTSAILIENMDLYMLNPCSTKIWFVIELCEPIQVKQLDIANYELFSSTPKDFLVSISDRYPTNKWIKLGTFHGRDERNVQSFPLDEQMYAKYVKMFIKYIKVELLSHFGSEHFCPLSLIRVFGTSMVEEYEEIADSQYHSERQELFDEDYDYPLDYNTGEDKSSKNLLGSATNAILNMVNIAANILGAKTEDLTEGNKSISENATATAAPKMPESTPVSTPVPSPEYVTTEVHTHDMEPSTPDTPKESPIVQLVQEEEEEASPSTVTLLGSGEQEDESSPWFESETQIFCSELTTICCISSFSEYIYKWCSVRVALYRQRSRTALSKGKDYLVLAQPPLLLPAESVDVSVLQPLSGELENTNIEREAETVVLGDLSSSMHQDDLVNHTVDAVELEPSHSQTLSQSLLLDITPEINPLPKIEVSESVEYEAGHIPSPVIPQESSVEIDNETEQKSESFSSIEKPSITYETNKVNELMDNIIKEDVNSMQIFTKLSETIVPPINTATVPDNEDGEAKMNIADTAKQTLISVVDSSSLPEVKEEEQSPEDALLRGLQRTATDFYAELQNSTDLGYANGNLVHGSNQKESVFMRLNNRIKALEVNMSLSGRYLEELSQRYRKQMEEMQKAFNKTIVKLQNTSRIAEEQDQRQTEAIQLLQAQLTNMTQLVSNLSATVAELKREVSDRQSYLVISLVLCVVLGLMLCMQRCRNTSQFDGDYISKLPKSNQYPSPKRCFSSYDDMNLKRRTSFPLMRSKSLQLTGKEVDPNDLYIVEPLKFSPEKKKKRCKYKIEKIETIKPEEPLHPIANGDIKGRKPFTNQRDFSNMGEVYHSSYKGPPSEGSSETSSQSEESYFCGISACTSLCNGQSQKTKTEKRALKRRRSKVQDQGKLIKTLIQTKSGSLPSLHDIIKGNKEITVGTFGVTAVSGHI
UniProt O43759: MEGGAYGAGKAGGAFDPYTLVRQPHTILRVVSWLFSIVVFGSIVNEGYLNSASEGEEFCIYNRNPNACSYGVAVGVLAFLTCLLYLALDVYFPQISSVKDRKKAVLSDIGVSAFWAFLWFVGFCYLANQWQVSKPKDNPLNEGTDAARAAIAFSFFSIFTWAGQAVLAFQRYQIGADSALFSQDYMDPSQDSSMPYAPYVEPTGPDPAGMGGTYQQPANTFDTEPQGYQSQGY

This is one part of the list.

Compound in one assay: Cc1cc(Nc2cc(N3CCN(C)CC3)nc(Sc3ccc(NC(=O)C4CC4)cc3)n2)n[nH]1 [tozasertib]
The experiment in a line: log2 fold change, soluble protein after heating vs DMSO (PISA); higher = thermal stabilisation; K562 lysate, 10 uM; active = over 0.2 and 3.5 SD of the protein, either way, in both replicates (recomputed). The method in brief:
(§1)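 Thermal stability, expressed as log-two fold change relative to solvent controls, is given from duplicates. Crude K562 extract in PBS pH 7.4 with 1 mM MgCl2, at 1 mg/mL protein, was treated with 10 μM compound for 30 min and heated in aliquots for 3 min across 48°C-58°C. After pooling, adjustment to 0.5% NP-40 at 4°C and centrifugation at 21,000xg for 90 min, supernatant protein was measured by TMTpro 16plex LC-MS/MS with channel sums equalised.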
Consider STIM2 isoform 2 (UniProt Q9P246), for which the log2 fold change is inactive: -0.106.

For SUPT3H (UniProt O75486), the log2 fold change is inactive: 0.07.

STK26 isoform 3 (UniProt Q9P289): the log2 fold change is inactive: -0.001.

Regarding STK16 (UniProt O75716), the log2 fold change was inactive: 0.162.

Take SYNM (UniProt O15061): the log2 fold change was inactive: -0.054.

With SUSD1 isoform 2 (UniProt Q6UWL2), the log2 fold change was inactive: 0.037.

As to STK35 (UniProt Q8TDR2), the log2 fold change was inactive: 0.038.

With TAF1 isoform 4 (UniProt P21675), the log2 fold change was inactive: 0.045.

As for SVBP (UniProt Q8N300), the log2 fold change was inactive: 0.005.

Turning to SZT2 (UniProt Q5T011), the log2 fold change is inactive: -0.097.

As for TAF11 (UniProt Q15544), the log2 fold change was inactive: 0.102.

For the target STK38L (UniProt Q9Y2H1), the log2 fold change was inactive: -0.009.

With SULT1A3 isoform 3 (UniProt P0DMM9), the log2 fold change is inactive: 0.051.

Take TAF5L (UniProt O75529): the log2 fold change is inactive: -0.029.

For the target TAF1C (UniProt Q15572), the log2 fold change is inactive: 0.034.

With SYK (UniProt P43405), the log2 fold change was inactive: 0.002.

In the case of SUCO isoform 2 (UniProt Q9UBS9), the log2 fold change was inactive: 0.051.

Turning to SUGCT isoform 3 (UniProt Q9HAC7), the log2 fold change is inactive: -0.134.

As to SYNGR1 isoform 2 (UniProt O43759), the log2 fold change is inactive: 0.2.

As to STRN3 (UniProt H0YJT2), the log2 fold change was inactive: -0.149.

Compound in another assay: Cc1ccc(-n2nc(C(C)(C)C)cc2NC(=O)Nc2ccc(OCCN3CCOCC3)c3ccccc23)cc1 [doramapimod]
The description is as above. The gist of the method:
as §1
Turning to STIM2 isoform 2 (UniProt Q9P246), the log2 fold change is inactive: -0.084.

On to TADA2B (UniProt Q86TJ2), for which the log2 fold change is inactive: -0.137.

For the target SUPT3H (UniProt O75486), the log2 fold change is inactive: -0.094.

For the target STK26 isoform 3 (UniProt Q9P289), the log2 fold change was inactive: -0.416.

For STK16 (UniProt O75716), the log2 fold change is inactive: -0.322.

For the target STXBP6 (UniProt Q8NFX7), the log2 fold change is inactive: 0.074.

With SUSD1 isoform 2 (UniProt Q6UWL2), the log2 fold change is inactive: 0.024.

Take STK17B (UniProt O94768): the log2 fold change was inactive: -0.117.

For TADA2A (UniProt O75478), the log2 fold change was inactive: -0.039.

In the case of TAF1 isoform 4 (UniProt P21675), the log2 fold change was inactive: 0.033.

For the target SVBP (UniProt Q8N300), the log2 fold change is inactive: -0.008.

As to SUFU (UniProt Q9UMX1), the log2 fold change was inactive: -0.056.

Consider SYCE2 (UniProt Q6PIF2), for which the log2 fold change is inactive: -0.026.

For the target TAF11 (UniProt Q15544), the log2 fold change was inactive: 0.023.

STK38L (UniProt Q9Y2H1): the log2 fold change was inactive: -0.025.

In the case of STK19 (UniProt P49842), the log2 fold change is inactive: -0.141.

With SULT1A3 isoform 3 (UniProt P0DMM9), the log2 fold change was inactive: 0.001.

Turning to TAF5L (UniProt O75529), the log2 fold change was inactive: -0.044.

Consider TAF1C (UniProt Q15572), for which the log2 fold change was inactive: -0.1.

Take SYK (UniProt P43405): the log2 fold change is inactive: 0.021.

Regarding STS (UniProt P08842), the log2 fold change was inactive: -0.039.

Regarding SUCO isoform 2 (UniProt Q9UBS9), the log2 fold change was inactive: 0.089.

SYNGR1 isoform 2 (UniProt O43759): the log2 fold change was inactive: -0.006.

For the target STK10 (UniProt O94804), the log2 fold change is inactive: -0.022.
